The list is a part of this screen's results and no random one: it gathers tests that were run many times, whatever their T/C, doses with no T/C, and many T/C values between a quarter and a half above the control. Further doses and runs are listed elsewhere. T/C is the treated group as % of the vehicle group. Some entries give survivors of the animals treated and no T/C: the source holds a T/C of zero for them, seemingly a mark for toxic or unscored doses. Some survivor counts are full or nearly so, which does not show that the dose was tolerated: survival well below the control is almost never listed, so the zero probably covers shortened survival too. Counts of survivors are from the toxicity check (mostly the fifth day) where no day follows; animals may have died later. Schedule codes are those of the source, taken here to give the interval after Q, in days (D) or hours (H), and the number of doses after X. Some schedules carry Z or #; the key to these is not given. For survival time, the PubChem record calls one and a half times the control and up active, and a quarter to a half above the control has no call in these data; cut-offs in other NCI protocols can differ.

The experiment concerns P335 leukemia ip, BDF1 mice, survival T/C %. Nature of the experiment: NCI In Vivo Anticancer Drug Screen. Data for tumor model P335 Leukemia (intraperitoneal) in B6D2F1 (BDF1) mice. The conditions noted are these: T/C endpoint: mean survival time, higher T/C = longer survival. As to the method: The antitumor activity of compounds was measured in mice bearing transplantable tumors. Survival or tumor size were measured and the results are expressed as the measurement made in the treated group (T) divided by the measurement made in the vehicle treated control group (C). The tumor model used in this assay is P335 Leukemia (intraperitoneal) in B6D2F1 (BDF1) mice

The mark [1] stands for this setting: dose: 250.0 mg/kg/injection, schedule: Q01DX Z (ip), vehicle: carboxymethylcellulose (CMC).
Setting [2] is: dose: 25.0 mg/kg/injection, schedule: Q01DX Z (ip), vehicle: carboxymethylcellulose (CMC).
Setting [3] is: dose: 50.0 mg/kg/injection, schedule: Q01DX Z (ip), vehicle: carboxymethylcellulose (CMC).
The mark [4] stands for this setting: dose: 100.0 mg/kg/injection, schedule: Q01DX Z (ip), vehicle: carboxymethylcellulose (CMC).
Setting [5] is: dose: 40.0 mg/kg/injection, schedule: Q01DX Z (ip), vehicle: carboxymethylcellulose (CMC).

For the molecule `CCn1cnc2c(=S)nc[nH]c21`, the survivor count by setting is: (dose: 3.9 mg/kg/injection, schedule: Q01DX Z (ip), vehicle: carboxymethylcellulose (CMC)) 6 of 6; (dose: 7.8 mg/kg/injection, schedule: Q01DX Z (ip), vehicle: carboxymethylcellulose (CMC)) 6 of 6; (dose: 31.2 mg/kg/injection, schedule: Q01DX Z (ip), vehicle: carboxymethylcellulose (CMC)) 6 of 6; (dose: 31.25 mg/kg/injection, schedule: Q01DX Z (ip), vehicle: carboxymethylcellulose (CMC)) 6 of 6; (dose: 62.5 mg/kg/injection, schedule: Q01DX Z (ip), vehicle: carboxymethylcellulose (CMC)) 5 of 6; (dose: 125.0 mg/kg/injection, schedule: Q01DX Z (ip), vehicle: carboxymethylcellulose (CMC)) 3 of 6. The survivor count under setting [1] is on record as 0 of 6.

For `CS(=O)(=O)OCCCl`, the survivor count is reported as 6 of 6 (dose: 12.5 mg/kg/injection, schedule: Q01DX Z (ip), vehicle: carboxymethylcellulose (CMC)); 5 of 6 under setting [2]; 4 of 6 under setting [3]; 0 of 6 under setting [4].

With `[I][Hg][CH2]C1COC([CH2][Hg][I])CO1` (stereo unspecified), the survivor count reads like this: (dose: 0.95 mg/kg/injection, schedule: Q01DX Z (ip), vehicle: carboxymethylcellulose (CMC)) 6 of 6; (dose: 1.9 mg/kg/injection, schedule: Q01DX Z (ip), vehicle: carboxymethylcellulose (CMC)) 6 of 6; (dose: 60.0 mg/kg/injection, schedule: Q01DX Z (ip), vehicle: carboxymethylcellulose (CMC)) 6 of 6; (dose: 120.0 mg/kg/injection, schedule: Q01DX Z (ip), vehicle: carboxymethylcellulose (CMC)) 2 of 6. The T/C (dose: 7.5 mg/kg/injection, schedule: Q01DX Z (ip), vehicle: carboxymethylcellulose (CMC)) is 131 % of control.

`NC(N)=Nc1nc2ccccc2o1`: the survivor count is recorded as 6 of 6 (dose: 4.0 mg/kg/injection, schedule: Q01DX Z (ip), vehicle: carboxymethylcellulose (CMC)) and 2 of 6 under setting [1].

Turning to `CC[C@H](c1ccc(O)cc1)[C@@H](CC)c1ccc(O)cc1`, the T/C was 133 % of control (dose: 1.0 mg/kg/injection, schedule: Q01DX Z (sc), vehicle: steroid suspending solution); 127 % of control (dose: 4.0 mg/kg/injection, schedule: Q01DX Z (sc), vehicle: steroid suspending solution); 140 % of control (dose: 8.0 mg/kg/injection, schedule: Q01DX Z (sc), vehicle: steroid suspending solution).

Take `O=C(O)CCCc1ccc(N(CCCl)CCCl)cc1`: the survivor count reads like this: under setting [2], 2 of 6; under setting [3], 0 of 6.

Consider `Oc1cc(CN(CCCl)CCCl)c(O)cc1CN(CCCl)CCCl`, for which the survivor count was 3 of 6 (dose: 3.75 mg/kg/injection, schedule: Q01DX Z (sc), vehicle: steroid suspending solution) and 6 of 6 (dose: 15.0 mg/kg/injection, schedule: Q01DX Z (sc), vehicle: steroid suspending solution).

On to `NC(Cc1ccc(N(CCCl)CCCl)cc1)C(=O)O` (stereo unspecified), for which the survivor count is 5 of 6 (dose: 10.0 mg/kg/injection, schedule: Q01DX Z (ip), vehicle: carboxymethylcellulose (CMC)); 5 of 6 (dose: 20.0 mg/kg/injection, schedule: Q01DX Z (ip), vehicle: carboxymethylcellulose (CMC)); 0 of 6 under setting [5].

In the case of `COS(C)(=O)=O`, the survivor count (dose: 200.0 mg/kg/injection, schedule: Q01DX Z (ip), vehicle: water) is 0 of 6.

For the molecule `CN(C)c1ccc(/C=C\c2ccnc3ccccc23)cc1`, the survivor count reads like this: (dose: 6.25 mg/kg/injection, schedule: Q01DX Z (ip), vehicle: water) 6 of 6; (dose: 12.5 mg/kg/injection, schedule: Q01DX Z (ip), vehicle: water) 6 of 6; (dose: 25.0 mg/kg/injection, schedule: Q01DX Z (ip), vehicle: water) 6 of 6; (dose: 50.0 mg/kg/injection, schedule: Q01DX Z (ip), vehicle: water) 6 of 6.

On to `C[C@]12C=CC(=O)C=C1CC[C@@H]1[C@@H]2[C@@H](O)C[C@@]2(C)[C@H]1CC[C@]2(O)C(=O)CO`, for which the survivor count (dose: 62.5 mg/kg/injection, schedule: Q01DX Z (sc), vehicle: steroid suspending solution) was 5 of 6; the survivor count (dose: 125.0 mg/kg/injection, schedule: Q01DX Z (sc), vehicle: steroid suspending solution) is 6 of 6; the survivor count (dose: 250.0 mg/kg/injection, schedule: Q01DX Z (sc), vehicle: steroid suspending solution) was 1 of 6; the survivor count (dose: 500.0 mg/kg/injection, schedule: Q01DX Z (sc), vehicle: steroid suspending solution) was 2 of 6.

For `Cn1cnc([N+](=O)[O-])c1Sc1ncnc2nc[nH]c12`, under setting [4], the survivor count is listed as 6 of 6.

For the molecule `CC(CCC(C)OS(C)(=O)=O)OS(C)(=O)=O` (stereo unspecified), the survivor count under setting [5] is on record as 6 of 6.

On to `O=C1CCC(N2C(=O)c3ccccc3C2=O)C(=O)N1` (stereo unspecified), for which, for the setting “dose: 75.0 mg/kg/injection, schedule: Q01DX Z (ip), vehicle: carboxymethylcellulose (CMC)”, the T/C is 138 % of control.

Consider `CCCNc1ncnc2[nH]ncc12`, for which the survivor count runs as follows: (dose: 1.25 mg/kg/injection, schedule: Q01DX Z (ip), vehicle: water) 6 of 6; (dose: 2.5 mg/kg/injection, schedule: Q01DX Z (ip), vehicle: water) 6 of 6; (dose: 5.0 mg/kg/injection, schedule: Q01DX Z (ip), vehicle: water) 6 of 6; (dose: 10.0 mg/kg/injection, schedule: Q01DX Z (ip), vehicle: water) 6 of 6; (dose: 20.0 mg/kg/injection, schedule: Q01DX Z (ip), vehicle: water) 6 of 6; (dose: 40.0 mg/kg/injection, schedule: Q01DX Z (ip), vehicle: water) 5 of 6.

Turning to `Clc1ncnc2nc[nH]c12`, the survivor count is recorded as 6 of 6 (dose: 8.0 mg/kg/injection, schedule: Q01DX Z (ip), vehicle: carboxymethylcellulose (CMC)); 6 of 6 (dose: 16.0 mg/kg/injection, schedule: Q01DX Z (ip), vehicle: carboxymethylcellulose (CMC)); 6 of 6 (dose: 31.0 mg/kg/injection, schedule: Q01DX Z (ip), vehicle: carboxymethylcellulose (CMC)); 0 of 6 under setting [1].

In the case of `O=NN(CCCl)C(=O)NCCCl`, the survivor count runs as follows: (dose: 8.0 mg/kg/injection, schedule: Q01DX Z (ip), vehicle: saline) 6 of 6; (dose: 32.0 mg/kg/injection, schedule: Q01DX Z (ip), vehicle: saline) 6 of 6; (dose: 64.0 mg/kg/injection, schedule: Q01DX Z (ip), vehicle: saline) 6 of 6.

In the case of `CS(=O)(=O)OCCCCOS(C)(=O)=O`, the survivor count is 6 of 6 (dose: 0.02 mg/kg/injection, schedule: Q01DX Z (ip), vehicle: methylcellulose (MC)); 6 of 6 (dose: 3.2 mg/kg/injection, schedule: Q01DX Z (ip), vehicle: methylcellulose (MC)); 6 of 6 (dose: 12.8 mg/kg/injection, schedule: Q01DX Z (ip), vehicle: methylcellulose (MC)); 6 of 6 (dose: 51.2 mg/kg/injection, schedule: Q01DX Z (ip), vehicle: methylcellulose (MC)); 6 of 6 (dose: 102.4 mg/kg/injection, schedule: Q01DX Z (ip), vehicle: methylcellulose (MC)); 4 of 6 (dose: 204.8 mg/kg/injection, schedule: Q01DX Z (ip), vehicle: methylcellulose (MC)).

With `Nc1ncnc2[nH]ncc12`, the survivor count was 5 of 6 under setting [2] and 4 of 6 under setting [3].

The record behind these values is PubChem BioAssay AID224 (DTP/NCI, 2004).
